Laboratory results taken from EP1509241B1, “NOVEL USES OF CEPHAIBOLS” (Sanofi-Aventis Deutschland GmbH, priority 2002, dated 2006).
Entries after “also recorded” stand apart in the source; their conditions may differ. Not every detail of the peptide structures is certain; ends, links or a residue may be inferred. Some compounds share one wording; it may come from a single statement. Square brackets hold non-standard residues; d marks the D form. Peptide text beside a SMILES is read from it. ξ: configuration not given here. Hyp = O=C(O)[C@@H]1C[C@@H](O)CN1; Phe(ol) = N[C@H](CO)Cc1ccccc1; ξIva = CCC(C)(N)C(=O)O; Aib = CC(C)(N)C(=O)O

Legend:
Labormäusen [1] = test: Influence on spontaneous motility (mouse model, neuroleptic effect); type: in vivo, Maus; details: 10mg/kg intraperitoneal, mice, observed from 5 min up to 24 hours, versus control mice
Labormäusen [2] = test: Hypothermia (mouse model, neuroleptic effect); type: in vivo, Maus; details: 10mg/kg intraperitoneal, mice, over a longer period, versus control mice

## CCC(C)(NC(=O)[C@H](CCC(N)=O)NC(=O)[C@@H]1C[C@@H](O)CN1C(=O)C(C)(C)NC(=O)C(C)(C)NC(=O)[C@H](CC(C)C)NC(=O)CNC(=O)C(C)(C)NC(=O)C(C)(C)NC(=O)C(C)(C)NC(=O)C(C)(C)NC(=O)[C@H](Cc1ccccc1)NC(C)=O)C(=O)N1C[C@H](O)C[C@H]1C(=O)NC(C)(C)C(=O)N1CCC[C@H]1C(=O)N[C@H](CO)Cc1ccccc1 (stereo partly drawn) [Cephaibol E, AcPhe-Aib-Aib-Aib-Aib-Gly-Leu-Aib-Aib-Hyp-Gln-Iva-Hyp-Aib-Pro-Phe-ol] (Ac-F[Aib][Aib][Aib][Aib]GL[Aib][Aib][Hyp]Q[ξIva][Hyp][Aib]P[Phe(ol)])
Labormäusen [1]
  Einfluss auf die Motorik (Hangeln): Beeinträchtigung der Motorik (Hangeln)
Labormäusen [2]
  Körpertemperatur: deutliche Absenkung der Körpertemperatur

## CCC(C)(NC(=O)[C@H](CC(C)C)NC(=O)CNC(=O)C(C)(C)NC(=O)C(C)(C)NC(=O)C(C)(C)NC(=O)C(C)(C)NC(=O)[C@H](Cc1ccccc1)NC(C)=O)C(=O)NC(C)(C)C(=O)N1C[C@H](O)C[C@H]1C(=O)N[C@@H](CCC(N)=O)C(=O)NC(C)(CC)C(=O)N1C[C@H](O)C[C@H]1C(=O)NC(C)(C)C(=O)N1CCC[C@H]1C(=O)N[C@H](CO)Cc1ccccc1 (stereo partly drawn) [Cephaibol A, AcPhe-Aib-Aib-Aib-Aib-Gly-Leu-Iva-Aib-Hyp-Gln-Iva-Hyp-Aib-Pro-Phe-ol] (Ac-F[Aib][Aib][Aib][Aib]GL[ξIva][Aib][Hyp]Q[ξIva][Hyp][Aib]P[Phe(ol)])
Labormäusen [1]
  Einfluss auf die Motorik (Hangeln): Beeinträchtigung der Motorik (Hangeln)
Labormäusen [2]
  Körpertemperatur: deutliche Absenkung der Körpertemperatur

## CC(=O)N[C@@H](Cc1ccccc1)C(=O)NC(C)(C)C(=O)NC(C)(C)C(=O)NC(C)(C)C(=O)NC(C)(C)C(=O)NCC(=O)N[C@@H](CC(C)C)C(=O)NC(C)(C)C(=O)NC(C)(C)C(=O)N1C[C@H](O)C[C@H]1C(=O)N[C@@H](CCC(N)=O)C(=O)NC(C)(C)C(=O)N1C[C@H](O)C[C@H]1C(=O)NC(C)(C)C(=O)N1CCC[C@H]1C(=O)N[C@H](CO)Cc1ccccc1 [Cephaibol D, AcPhe-Aib-Aib-Aib-Aib-Gly-Leu-Aib-Aib-Hyp-Gln-Aib-Hyp-Aib-Pro-Phe-ol] (Ac-F[Aib][Aib][Aib][Aib]GL[Aib][Aib][Hyp]Q[Aib][Hyp][Aib]P[Phe(ol)])
Labormäusen [1]
  Einfluss auf die Motorik (Hangeln): Beeinträchtigung der Motorik (Hangeln)

## CCC(C)(NC(=O)[C@H](CC(C)C)NC(=O)CNC(=O)C(C)(C)NC(=O)C(C)(C)NC(=O)C(C)(C)NC(=O)C(C)(C)NC(=O)[C@H](Cc1ccccc1)NC(C)=O)C(=O)NC(C)(C)C(=O)N1C[C@H](O)C[C@H]1C(=O)N[C@@H](CCC(N)=O)C(=O)NC(C)(C)C(=O)N1C[C@H](O)C[C@H]1C(=O)NC(C)(C)C(=O)N1CCC[C@H]1C(=O)N[C@H](CO)Cc1ccccc1 (stereo partly drawn) [Cephaibol C, AcPhe-Aib-Aib-Aib-Aib-Gly-Leu-lva-Aib-Hyp-Gln-Aib-Hyp-Aib-Pro-Phe-ol] (Ac-F[Aib][Aib][Aib][Aib]GL[ξIva][Aib][Hyp]Q[Aib][Hyp][Aib]P[Phe(ol)])
Labormäusen [1]
  Einfluss auf die Motorik (Hangeln): Beeinträchtigung der Motorik (Hangeln); also recorded: Besonders ausgeprägt
Labormäusen [2]
  Körpertemperatur: deutliche Absenkung der Körpertemperatur; also recorded: besonders ausgeprägt

## CCC(C)(NC(=O)[C@H](CC(C)C)NC(=O)CNC(=O)C(C)(CC)NC(=O)C(C)(C)NC(=O)C(C)(C)NC(=O)C(C)(C)NC(=O)[C@H](Cc1ccccc1)NC(C)=O)C(=O)NC(C)(C)C(=O)N1C[C@H](O)C[C@H]1C(=O)N[C@@H](CCC(N)=O)C(=O)NC(C)(CC)C(=O)N1C[C@H](O)C[C@H]1C(=O)NC(C)(C)C(=O)N1CCC[C@H]1C(=O)N[C@H](CO)Cc1ccccc1 (stereo partly drawn) [Cephaibol B, AcPhe-Aib-Aib-Aib-Iva-Gly-Leu-Iva-Aib-Hyp-Gln-Iva-Hyp-Aib-Pro-Phe-ol] (Ac-F[Aib][Aib][Aib][ξIva]GL[ξIva][Aib][Hyp]Q[ξIva][Hyp][Aib]P[Phe(ol)])
Labormäusen [1]
  Einfluss auf die Motorik (Hangeln): Beeinträchtigung der Motorik (Hangeln); also recorded: Besonders ausgeprägt
Labormäusen [2]
  Körpertemperatur: deutliche Absenkung der Körpertemperatur; also recorded: besonders ausgeprägt
